“Also recorded” adds a separate entry of the source. At least one peptide structure holds a part that was inferred or is arguable (an end, a ring closure or a residue). Where a SMILES comes first, the peptide text is derived from it. [ ]: non-standard residue; d: D form. The star is where a group is joined. Met(O2) = CS(=O)(=O)CC[C@H](N)C(=O)O; ODecyl = CCCCCCCCCCO*
Key:
[1] = test system: Wistar rats; assay: Passive avoidance behaviour (retention test); type: in vivo; conditions: 1 hour before the retention test
[2] = test system: group housed rats; assay: Environmentally induced changes in motor activity (group housed rats, low light); type: in vivo; conditions: 1 hour before testing, low light conditions
[3] = test system: rats with bilateral 6-OHDA lesions or sham lesions in the nucleus accumbens; assay: 6-OHDA induced motor hypoactivity (lesions in the nucleus accumbens, open field); type: in vivo, Male Wistar rats; conditions: for motor activity on day 7: 6-OHDA lesioned rats
[4] = test system: damaged peripheral nerve; conditions: reported by Van der Zee (1989); cited from earlier work

With `CCCCCCCCCCOC(=O)[C@H](Cc1ccccc1)NC(=O)[C@@H](CCCCN)NC(=O)[C@H](Cc1ccccc1)NC(=O)[C@H](Cc1c[nH]cn1)NC(=O)[C@H](CCC(=O)O)NC(=O)[C@@H](N)CCS(C)(=O)=O` [H-Met02-Glu-His-Phe-D-Lys-Phe-OC10H21] (H-[Met(O2)]EHF[dK]F-ODecyl) the passive avoidance behaviour ([1]; s.c. 0.5 ng/kg) was “facilitated avoidance behaviour; also recorded: facilitates the avoidance response”, the passive avoidance behaviour ([1]; s.c. 0.5 ng/kg, listed as drawing 2) was “facilitated passive avoidance behaviour” and the passive avoidance behaviour ([1]; s.c. 5 ng/kg) was “facilitated avoidance behaviour; also recorded: facilitates the avoidance response”. For the same compound, the passive avoidance behaviour ([1]; s.c. 5 ng/kg, listed as drawing 2) was “facilitated passive avoidance behaviour”, the passive avoidance behaviour ([1]; s.c. 250 ng/kg) was “attenuated the avoidance response; also recorded: inhibition of the avoidance response” and the passive avoidance behaviour ([1]; s.c. 250 ng/kg, listed as drawing 2) was “attenuated the passive avoidance response”. For the same compound, the motor activity ([2]; s.c. 0.1 µg/kg) was “decrease in motor activity which reached statistical significance; also recorded: decreases motor activity”, the motor activity ([2]; s.c. 0.1 µg/kg, listed as drawing 2) was “decreased motor activity” and the motor activity ([2]; s.c. 1.0 µg/kg) was “decrease in motor activity which reached statistical significance”. For the same compound, the motor activity ([2]; s.c. 1.0 µg/kg, listed as drawing 2) was “decreased motor activity”, the “motor activity on day 7” value ([3]; oral 1.0 µg/kg daily day 1 to day 6) was “not effective” and the “motor activity on day 7” value ([3]; oral 10 µg/kg daily day 1 to day 6) was “significant recovery of motor activity”. For the same compound, the “motor activity on day 7” value ([3]; oral 10 µg/kg daily day 1 to day 6, listed as drawing 2) was “accelerated functional recovery”, the “motor activity on day 7” value ([3]; s.c. 0.1 ng/kg daily day 1 to day 6) was “without effect” and the “motor activity on day 7” value ([3]; s.c. 1.0 ng/kg daily day 1 to day 6) was “complete recovery of motor activity; also recorded: facilitates functional recovery”. For the same compound, the “motor activity on day 7” value ([3]; s.c. 1.0 ng/kg daily day 1 to day 6, listed as drawing 2) was “accelerated functional recovery”, the “motor activity on day 7” value ([3]; s.c. 10.0 ng/kg daily day 1 to day 6) was “complete recovery of motor activity” and the “motor activity on day 7” value ([3]; s.c. 10.0 ng/kg daily day 1 to day 6, listed as drawing 2) was “accelerated functional recovery”. The “calculated ED50 for the facilitation of functional recovery after a 6-OHDA lesion of the nucleus accumbens” value ([3]; oral administration) was 10 µg/kg, the “motor activity of sham lesioned animals” value ([3]; sham lesioned rats, daily s.c. or oral administration) was “did not affect motor activity” and the “facilitating the repair of damaged peripheral nerve” value [4] was “ineffective”.

Reference: patent EP0467433A1, “Use of a centrally acting ATCH analog in the manufacture of a medicament” (AKZO N.V., priority 1990, dated 1992)
